Percent effect of library compounds

Amino acid sequences for entries named in this document (tags omitted). Residues count along the entry.
UniProt P9WFT3, whole entry: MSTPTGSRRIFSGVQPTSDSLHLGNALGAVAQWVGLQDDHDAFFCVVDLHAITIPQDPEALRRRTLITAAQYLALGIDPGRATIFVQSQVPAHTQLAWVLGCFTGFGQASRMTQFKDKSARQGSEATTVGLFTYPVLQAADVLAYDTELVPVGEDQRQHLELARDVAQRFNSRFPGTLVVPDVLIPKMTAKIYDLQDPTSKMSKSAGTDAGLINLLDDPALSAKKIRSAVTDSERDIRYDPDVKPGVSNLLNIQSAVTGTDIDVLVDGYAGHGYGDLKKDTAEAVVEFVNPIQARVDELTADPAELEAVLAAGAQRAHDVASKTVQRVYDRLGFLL
UniProt Q4DA54, 1-478: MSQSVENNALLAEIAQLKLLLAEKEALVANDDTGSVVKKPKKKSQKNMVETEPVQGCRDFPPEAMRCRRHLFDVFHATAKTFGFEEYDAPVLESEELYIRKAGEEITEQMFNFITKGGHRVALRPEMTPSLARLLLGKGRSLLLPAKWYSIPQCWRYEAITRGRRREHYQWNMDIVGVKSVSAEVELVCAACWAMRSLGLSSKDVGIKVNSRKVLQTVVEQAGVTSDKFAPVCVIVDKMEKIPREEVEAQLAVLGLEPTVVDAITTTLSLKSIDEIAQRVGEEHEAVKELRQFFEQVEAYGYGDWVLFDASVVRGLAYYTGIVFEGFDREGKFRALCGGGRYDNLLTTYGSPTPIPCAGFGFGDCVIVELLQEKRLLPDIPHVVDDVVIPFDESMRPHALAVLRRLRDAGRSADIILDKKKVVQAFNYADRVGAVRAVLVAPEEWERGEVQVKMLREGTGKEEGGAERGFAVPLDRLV
UniProt Q8IDJ8, 1-583: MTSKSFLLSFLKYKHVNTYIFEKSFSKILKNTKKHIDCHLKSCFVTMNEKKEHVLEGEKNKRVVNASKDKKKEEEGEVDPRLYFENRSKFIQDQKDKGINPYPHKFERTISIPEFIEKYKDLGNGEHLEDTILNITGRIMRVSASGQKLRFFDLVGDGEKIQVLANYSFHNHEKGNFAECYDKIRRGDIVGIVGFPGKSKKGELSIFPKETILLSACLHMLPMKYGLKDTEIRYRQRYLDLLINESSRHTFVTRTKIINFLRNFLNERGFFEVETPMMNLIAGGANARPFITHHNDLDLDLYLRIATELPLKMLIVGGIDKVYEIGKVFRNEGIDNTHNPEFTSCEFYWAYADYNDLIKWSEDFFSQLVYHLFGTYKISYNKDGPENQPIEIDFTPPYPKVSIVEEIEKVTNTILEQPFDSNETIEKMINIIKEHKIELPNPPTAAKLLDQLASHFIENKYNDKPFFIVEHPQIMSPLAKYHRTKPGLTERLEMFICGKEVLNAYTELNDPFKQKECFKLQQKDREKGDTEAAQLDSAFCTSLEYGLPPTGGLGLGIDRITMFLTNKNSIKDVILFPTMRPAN
UniProt P9WNZ1, whole entry: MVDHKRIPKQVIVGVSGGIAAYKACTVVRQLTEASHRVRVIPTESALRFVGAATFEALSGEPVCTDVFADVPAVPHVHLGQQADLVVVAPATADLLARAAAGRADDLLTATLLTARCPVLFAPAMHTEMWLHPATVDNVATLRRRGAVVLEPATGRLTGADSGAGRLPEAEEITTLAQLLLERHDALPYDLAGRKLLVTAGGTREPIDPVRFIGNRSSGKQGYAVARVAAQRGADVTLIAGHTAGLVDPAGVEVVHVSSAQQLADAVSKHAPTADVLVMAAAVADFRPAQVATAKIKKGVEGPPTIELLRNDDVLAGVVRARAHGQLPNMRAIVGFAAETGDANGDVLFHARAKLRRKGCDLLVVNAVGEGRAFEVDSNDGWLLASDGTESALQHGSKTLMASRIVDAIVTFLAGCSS
UniProt I6X8D2, whole entry: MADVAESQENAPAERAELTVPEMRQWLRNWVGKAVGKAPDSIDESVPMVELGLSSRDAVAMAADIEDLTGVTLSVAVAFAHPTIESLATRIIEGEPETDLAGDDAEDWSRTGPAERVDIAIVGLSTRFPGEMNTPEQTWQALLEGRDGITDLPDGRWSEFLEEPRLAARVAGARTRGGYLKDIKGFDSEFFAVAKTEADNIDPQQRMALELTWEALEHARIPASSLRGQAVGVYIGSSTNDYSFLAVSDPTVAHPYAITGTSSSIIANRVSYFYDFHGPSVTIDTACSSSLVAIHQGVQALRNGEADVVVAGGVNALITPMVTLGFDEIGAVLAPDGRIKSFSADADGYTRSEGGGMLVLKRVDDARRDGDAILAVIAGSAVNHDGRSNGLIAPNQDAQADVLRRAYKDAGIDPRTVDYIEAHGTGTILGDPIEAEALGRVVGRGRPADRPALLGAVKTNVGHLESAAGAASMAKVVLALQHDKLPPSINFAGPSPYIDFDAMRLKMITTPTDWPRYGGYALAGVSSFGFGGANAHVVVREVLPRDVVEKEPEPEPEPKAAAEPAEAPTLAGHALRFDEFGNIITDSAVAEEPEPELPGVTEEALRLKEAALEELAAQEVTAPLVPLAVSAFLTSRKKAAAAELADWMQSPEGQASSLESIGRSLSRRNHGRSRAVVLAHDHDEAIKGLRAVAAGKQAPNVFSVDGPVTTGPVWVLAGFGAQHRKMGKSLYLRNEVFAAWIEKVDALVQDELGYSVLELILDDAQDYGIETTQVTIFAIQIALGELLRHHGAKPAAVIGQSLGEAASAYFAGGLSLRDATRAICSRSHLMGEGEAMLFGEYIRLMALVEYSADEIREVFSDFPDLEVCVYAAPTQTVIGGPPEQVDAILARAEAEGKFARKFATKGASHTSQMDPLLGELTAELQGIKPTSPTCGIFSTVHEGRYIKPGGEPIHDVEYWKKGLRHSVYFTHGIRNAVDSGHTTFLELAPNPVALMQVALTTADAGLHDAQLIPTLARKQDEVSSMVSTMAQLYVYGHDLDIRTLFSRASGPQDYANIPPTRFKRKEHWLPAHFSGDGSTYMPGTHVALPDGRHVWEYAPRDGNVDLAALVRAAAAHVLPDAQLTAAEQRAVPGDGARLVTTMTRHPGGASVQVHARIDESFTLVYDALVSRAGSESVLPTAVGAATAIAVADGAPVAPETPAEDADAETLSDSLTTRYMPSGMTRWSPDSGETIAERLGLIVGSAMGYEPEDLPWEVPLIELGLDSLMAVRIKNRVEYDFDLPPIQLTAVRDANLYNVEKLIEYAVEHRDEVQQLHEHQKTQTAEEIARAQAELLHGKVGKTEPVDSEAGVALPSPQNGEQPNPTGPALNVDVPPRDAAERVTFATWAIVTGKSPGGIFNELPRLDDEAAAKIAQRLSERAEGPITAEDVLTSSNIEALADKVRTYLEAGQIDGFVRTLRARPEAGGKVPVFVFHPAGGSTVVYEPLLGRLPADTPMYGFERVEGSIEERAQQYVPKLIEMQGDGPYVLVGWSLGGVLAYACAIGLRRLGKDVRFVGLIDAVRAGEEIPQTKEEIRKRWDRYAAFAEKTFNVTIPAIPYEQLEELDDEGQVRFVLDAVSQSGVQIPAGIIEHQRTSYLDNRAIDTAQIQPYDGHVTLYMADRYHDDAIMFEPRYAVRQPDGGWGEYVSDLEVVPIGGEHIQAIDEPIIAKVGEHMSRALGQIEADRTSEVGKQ

Measurements from “University of Dundee, Small-Polar-MMV Screening Library” (2021), ChEMBL document CHEMBL3988442.

MtTrpRS: 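Enzyme assay of tryptophanyl-tRNA synthetase; the read-out is not stated. Target: Tryptophan-tRNA ligase, Mycobacterium tuberculosis (UniProt P9WFT3). Compounds at 10 µM. Higher most likely means stronger inhibition; the record gives no direction and few retests gave an IC50. Size under these conditions: about 65,000 compounds, about 64 of them at 50% or above in at least one test.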
TcHisRS: 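Enzyme assay of histidyl-tRNA synthetase; the read-out is not stated. Target: Histidine-tRNA ligase, Trypanosoma cruzi CL Brener (UniProt Q4DA54). Compounds at 30 µM. Direction is inferred from retests: higher values go with stronger inhibition. Of about 69,000 compounds tested this way, about 31 (0.045%) reached 50% or more in at least one test.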
PfKRS1: 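Enzyme assay of the cytosolic lysyl-tRNA synthetase in 384-well plates, read by luminescence. Target: Lysine-tRNA ligase, Plasmodium falciparum 3D7 (UniProt Q8IDJ8). Tested at 30 µM. Direction is inferred from only a few compounds that gave an IC50; most scored high, so higher reads as stronger inhibition. Size under these conditions: about 69,000 compounds, about 49 of them at 50% or above in at least one test.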
CoaBC: 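Coenzyme A biosynthesis protein CoaBC, Mycobacterium tuberculosis (UniProt P9WNZ1). Enzyme assay of CoaBC with a phosphate dye (Biomol Green) read at 650 nm. Tested at 30 µM. Direction is inferred from only a few compounds that gave an IC50; most scored high, so higher reads as stronger inhibition. Most strong results did not repeat in a second test. Of about 67,000 compounds tested this way, about 40 (0.06%) reached 50% or more in at least one test.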
Pks13 thioesterase: 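Enzyme assay of the thioesterase domain of polyketide synthase 13; the read-out is not stated. Target: Polyketide synthase Pks13, Mycobacterium tuberculosis (UniProt I6X8D2). Concentration: 30 µM. The record gives no direction; the compounds picked for IC50 retests had high values, so higher reads as stronger inhibition. About 67,000 compounds were tested under these conditions; 0.46% (about 300) showed 50% or more at least once.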
Leishmania in macrophages: 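Cell assay of Leishmania donovani living inside macrophages; the read-out is not stated. Compounds at 30 µM. Higher reads as stronger inhibition (inferred: compounds with an IC50 in retests scored well above the rest). About 69,000 compounds were tested under these conditions; 1.5% (about 1,000) showed 50% or more at least once.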

Results are given as percent effect. The record does not define 0% and 100%; most values in the screen are far below 50% and negative numbers occur (in some assays of this library far below -100). Compounds were drawn at random from those tested, without regard to their results. Two or more numbers in one place are separate tests of the same structure; such repeats can differ widely. A dash means the value is not listed here; it may have been measured.

compound,MtTrpRS,TcHisRS,PfKRS1,CoaBC,Pks13 thioesterase,Leishmania in macrophages
O=C(O)C(F)(F)F.[H][C@@]12CCN(Cc3ccsc3)C[C@]1([H])[C@H](C(=O)N1CCCC1)CCO2,-,-,-,-,-,22.01%
Cc1nc2ccccn2c1CC(=O)N[C@@H]1CCC[C@@H](N2CCCC2)[C@@H]1O,-0.8696%,5.224%,-0.1613%,-3.163%,1.786%,19.14% and 13.49%
CC(C)NC(=O)N1CCC2(CC1)CN(C(=O)NC(C)C)CCO2,-1.988%,-0.5917%,3.221%,-5.789%,-9.428%,14.75%
Cc1ccc(NCc2cc(C#N)ccc2F)cc1-n1nnnc1C,-0.4454%,7.212%,0.2723%,1.908%,2.286%,-28.76%
CCn1cc(CN2CCCN(C(=O)c3ccn(C)c(=O)c3)CC2)cn1,-0.2346%,-1.887%,2.009%,7.692%,-17.73%,15.59%
CC(C)Cc1cc(CNC(=O)C2CCCN(Cc3ccco3)C2)no1 (stereo not drawn),-1.837%,5.844%,4.471%,1.814%,4.464%,15.06%
CCn1cc(CN2CCCN(C(=O)CCc3ccccc3)CC2)cn1,1.85%,3.448%,2.189%,7.355%,-13.17%,16.13%
O=C(O)C(F)(F)F.[H][C@@]12C[C@H](C(=O)NC)CN(Cc3cccc4ccccc34)[C@]1([H])CCO2,-,-,-,-,-,-5.461%
COc1ccccc1C(O)CNC(=O)NCc1cccnc1OC (stereo not drawn),-2.439%,4.511%,0.8177%,2.828%,-5.525%,-5.144%
CC(C)OCc1ncn2c1CN(Cc1cnn(C)c1)CCC2,-4.74%,6.468%,4.465%,1.29%,1.108%,-
CC(=O)N1N=C(c2ccccc2)OC1C(=O)NCCc1ccc(O)cc1 (stereo not drawn),-,4.545%,3.473%,9.951%,-6.203%,13.58%
CN1CC[C@]2(CN(Cc3cccs3)C[C@H]2c2ccccc2)C1=O,-2.885%,-6.897%,4.358%,-15.27%,-33.34%,7.681%
CCNS(=O)(=O)c1ccc(C)c(C(=O)N(CCC#N)Cc2ccco2)c1,2.381%,8.867%,0.9604%,-17.95%,-25.18%,34.84%
CNc1nc(N2CCN(CC=C(C)C)C(CCO)C2)nc2c1CCC2 (stereo not drawn),-1.554%,6.404%,4.466%,-6.452%,-0.1163%,-3.342%
Cc1nc(C)c(C(C)NCc2cnc(N3CCOCC3)nc2)s1.Cl (stereo not drawn),-,-,-,-,-,8.29%
CN(Cc1cnn(C)c1)C(=O)c1ccnc(OC2CCC2)c1,-2.734%,6.897%,2.019%,-3.526%,-16.62%,32.66%
CCc1nc(C)c(CN2CCN(c3ncnc4c(C)csc34)CC2)[nH]1,0.3458%,6.024%,5.381%,1.98%,-1.253%,24.01%
Cc1nc(CN2CCc3ncnc(C)c3CC2)cs1.O=C(O)C(F)(F)F,-,-,-,-,-,22.72%
Cn1cnc(S(=O)(=O)NCC(C)(O)c2ccc3c(c2)OCO3)c1 (stereo not drawn),-0.07598%,-2.062%,1.641%,10.36%,-28%,15.76% and 7.836%
COCC(=O)N1CCN(Cc2csc(-c3ncccn3)n2)CC1,3.114%,11.67%,3.454%,4.132%,5.973%,8.131%
CN(C)CC(=O)NC1CC(C)(C)Cc2nc(C(C)(C)C)ncc21 (stereo not drawn),1.071%,3.483%,-5.869%,7.403%,-7.068%,-30.72%
Cc1ccc(CN2CCNC(C(=O)NC3CC3)C2)cc1C (stereo not drawn),-3.039%,2.899%,4.861%,-0.6211%,-20.75%,17.29%
CCSc1ccc(C(C)NC(=O)CCS(C)(=O)=O)cc1 (stereo not drawn),-1.574%,9.244%,5.217%,-7.661%,-4.59%,22.79%
CCC(=O)N1CC[C@H]2[C@H](C[C@@H](Cn3cccn3)N2c2nccs2)C1,-,1.676%,2.292%,0.8485%,4.74%,-
Cc1nnc(NC(=O)CN2CCCC2c2noc(C(C)C)n2)s1 (stereo not drawn),-5.661%,3.39%,-0.5433%,1.828%,-,19.57%
Cc1cccc(CNC(CN2CCN(C)CC2)c2ccccc2)c1 (stereo not drawn),1.006%,-2.542%,4.435%,-44.49%,-6.17%,98.99%
COc1cccc(N2CCN(C(=O)CN(C)c3cnccn3)CC2)c1,0.8708%,4.956%,-0.6343%,1.619%,-15.79%,3.797%
CCO[C@@H]1CN(S(=O)(=O)c2cn(C)cn2)[C@@H]2CCCO[C@@H]21,0.7273%,5.806%,3.157%,-1.208%,-10.22%,-
Cc1nnc(SCCNC(=O)c2cc(S(N)(=O)=O)ccc2F)s1,-4.143%,5.882%,1.436%,-1.304%,-14.63%,35.67%
Cc1cc(C)n(-c2cncc(NCCNC(=O)C(C)C)n2)n1,0%,0.8475%,5.146%,-5.286%,35.41%,-15.38%
CSc1ncc(C(=O)N2C[C@@H](NC(C)=O)[C@H](c3ccc(C)cc3)C2)cn1,0.09671%,1.63%,10.8%,-7.438%,-35.68%,-9.949%
CCn1cnnc1CNC(=O)N1CCC(CN2CCCCCC2)CC1,-3.834%,3.944%,4.124%,0.6361%,-0.8699%,18.63%
Cc1nc2n(n1)CC(Nc1cc(C(F)(F)F)nc3ncnn13)CC2 (stereo not drawn),0.6415%,1.653%,1.124%,-6.183%,-29.1%,31.82%
Cc1ccc2c(n1)N(CCn1cccn1)CCN(CC1CC1)C2.O=C(O)C(F)(F)F.O=C(O)C(F)(F)F,-,-,-,-,-,1.484%
N#Cc1cccnc1OC1CCN(S(=O)(=O)c2c(F)cccc2F)CC1,3.415%,-2.404%,-6.938%,4.707%,30.29%,-3.428%
COc1ccc(C[C@H]2CN(C(=O)CS(C)(=O)=O)CC[C@H]2OC)cc1,-1.744%,4.854%,2.529%,3.99%,-27.4%,24.45%
O=C(O)c1ccnc(-c2ccnc(NCCc3cscn3)n2)c1,-6.74%,1.571%,4.72%,1.029%,-10.83%,34.33%
CCC1COCCN1C(=O)CNC(=O)c1ccoc1C (stereo not drawn),0.8738%,4.902%,2.035%,1.595%,-27.38%,20.26%
CC(NC(=O)N1CCN(c2cccs2)CC1)c1ccncc1 (stereo not drawn),-3.964%,2.618%,-2.306%,9.636%,-37.32%,17.19%
CCC1=N[C@@]2(CC[C@@H]3CN(Cc4ccccc4C)C[C@@H]32)C(=O)N1,-1.481%,1.604%,6.567%,4.167%,-,-
Cc1ccc(CNC(c2ccccc2)c2nccn2C)cc1C (stereo not drawn),0.8746%,4.215%,10.46%,5.734%,-18.47%,38.71%
O=C(O)C(F)(F)F.[H][C@@]12CN(C(=O)c3ccco3)C[C@]1([H])CN(c1ccccn1)C2,-,-,-,-,-,17.83%
Cc1ccccc1S(=O)(=O)NC(=O)C1(c2cccc(Cl)c2)CC1,-1.63%,7.216%,3.886%,3.736%,-4.649%,10.72%
COc1c(CNCCNC(=O)c2ccc(C)c(F)c2)c(C)nn1C,-6.907%,2.339%,1.977%,-3.061%,3.694%,9.027%
Cc1cnn(CC2CN(CC(=O)Nc3cccnc3)CCO2)c1 (stereo not drawn),-2.164%,4.911%,0.8448%,0%,-2.31%,22.59%
CS(=O)(=O)N1CC(=O)N(CCCc2ccccc2)CC(O)C1 (stereo not drawn),-,3.468%,1.573%,-2.086%,-1.251%,14.82%
Cc1nc(C)n(CC2CCCN(CCc3ccccn3)C2)n1 (stereo not drawn),-3.411%,-1.128%,4.96%,2.089%,-22.08%,0.6334%
Cc1nn(C)c(C)c1NC(=O)CCn1ncc2c(C)cccc21,-0.2486%,2.51%,2.539%,-5%,-15.38%,32.53%
Cc1cc(C(=O)NCC(O)CN2CCCC2=O)ccc1F (stereo not drawn),-1.5%,0%,4.655%,1.621%,-27.27%,9.648%
CO[C@H]1CCN(S(=O)(=O)c2cn(C)cn2)[C@H]1Cc1cnn(C)c1.O=C(O)C(F)(F)F,-,-,-,-,-,-22.16%
O=C(NCc1nc2ccccc2[nH]1)c1cc2n(n1)CCCO2,-5.851%,5.155%,7.798%,-7.4%,-27.94%,20.46% and 22.18%
COCCOc1ncccc1CNCc1c(C)nn(C)c1N(C)C,1.017%,2.256%,5.996%,-1.068%,-8.307%,16.79%
Cc1cc(N2CCCC2Cn2nc(C)cc2C)n2ncnc2n1 (stereo not drawn),6.192%,3.947%,3.578%,-,-16.63%,-1.216%
Cc1nn(C)cc1-c1cc(C(F)F)nc2sc(C(N)=O)c(N)c12,3.055%,5.804%,4.497%,3.827%,18.04%,0.5467%
CCc1ccc(CN2CC[C@H]3C[C@H](c4nnc(C)[nH]4)O[C@@H]3C2)o1,0.4112%,4.132%,5.042%,2.366%,31.98%,-
Cc1ccc2c(c1)C1(CCNCC1)CC2NCCO (stereo not drawn),-,5.525%,4.486%,2.723%,-6.538%,-